Measured values taken from paper PMC12061476.
These are yes or no findings as the source states them, for the method shown. Binding seen in cells or lysates may run through a third protein. Some binding calls cover weakened binding; strength is not graded here.

Chains of the proteins cited; added tags and fusions are not shown.
UniProt P28347: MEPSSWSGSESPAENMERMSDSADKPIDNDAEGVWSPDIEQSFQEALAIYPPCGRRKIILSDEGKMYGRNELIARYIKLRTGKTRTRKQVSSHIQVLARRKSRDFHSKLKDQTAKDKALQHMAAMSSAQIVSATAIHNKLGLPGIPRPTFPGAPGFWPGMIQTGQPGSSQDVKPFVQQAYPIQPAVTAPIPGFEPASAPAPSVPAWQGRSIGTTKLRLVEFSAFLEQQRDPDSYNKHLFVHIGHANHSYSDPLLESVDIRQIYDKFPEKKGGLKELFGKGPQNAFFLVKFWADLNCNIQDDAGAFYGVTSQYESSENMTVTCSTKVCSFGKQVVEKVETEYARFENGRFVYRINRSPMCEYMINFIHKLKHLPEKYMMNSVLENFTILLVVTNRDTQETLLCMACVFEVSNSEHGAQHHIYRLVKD
UniProt Q9GZV5: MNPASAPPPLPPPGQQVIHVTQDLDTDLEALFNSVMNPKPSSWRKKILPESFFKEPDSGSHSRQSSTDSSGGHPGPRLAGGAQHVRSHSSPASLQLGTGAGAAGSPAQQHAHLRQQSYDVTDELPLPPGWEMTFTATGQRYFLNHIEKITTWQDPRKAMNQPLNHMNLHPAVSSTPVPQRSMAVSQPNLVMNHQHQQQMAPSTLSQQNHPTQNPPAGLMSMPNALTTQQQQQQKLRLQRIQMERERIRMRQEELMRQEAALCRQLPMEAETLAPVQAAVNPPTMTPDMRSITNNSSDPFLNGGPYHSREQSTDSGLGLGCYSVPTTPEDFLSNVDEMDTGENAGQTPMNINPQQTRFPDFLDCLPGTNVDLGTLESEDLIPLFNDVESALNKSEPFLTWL

Biological target: TEAD1-Flag (UniProt P28347)
Assay: co-IP; TEAD1-Flag or TEAD1-NCOA2-Flag expressed in HEK293T cells, immunoprecipitated with an anti-Flag antibody; endogenous YAP/TAZ detected by anti-YAP/TAZ antibodies

endogenous TAZ (from UniProt Q9GZV5 1-400)
binding: binds
